Experimental data published in US20250197499A1.
No constants are given. Whether binding was seen depends on the method and setting.

Amino acid sequences for entries named in this document (tags omitted). Residues count along the entry.
UniProt Q9BQ51, residues 20-219: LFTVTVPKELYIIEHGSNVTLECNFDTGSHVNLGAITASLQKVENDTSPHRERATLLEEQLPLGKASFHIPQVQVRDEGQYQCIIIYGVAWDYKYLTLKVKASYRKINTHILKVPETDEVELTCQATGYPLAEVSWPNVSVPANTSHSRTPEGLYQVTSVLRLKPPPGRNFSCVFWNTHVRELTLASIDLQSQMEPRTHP
UniProt Q9NZQ7: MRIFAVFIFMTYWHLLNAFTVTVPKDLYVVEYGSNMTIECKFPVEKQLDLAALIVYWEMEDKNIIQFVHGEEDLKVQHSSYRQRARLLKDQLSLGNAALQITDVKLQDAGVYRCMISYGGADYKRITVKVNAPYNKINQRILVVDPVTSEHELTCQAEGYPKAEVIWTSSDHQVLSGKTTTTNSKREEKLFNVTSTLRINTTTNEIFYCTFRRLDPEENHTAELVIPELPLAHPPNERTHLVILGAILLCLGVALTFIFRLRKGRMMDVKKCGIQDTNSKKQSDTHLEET

Columns and labels:
[1] = target: Recombinant human PD-L2-His tag (ACROBiosystems, #PD2-H5220) (human) (UniProt Q9BQ51); test: Octet RED96e; PD-L2-His loaded at 10 µg/ml on HIS1K sensor; negative control
[2] = target: Recombinant human PD-L2-His tag (ACROBiosystems, #PD2-H5220) (human) (UniProt Q9BQ51); test: Octet RED96e sensorgram; PD-L2-His loaded at 10 µg/ml on HIS1K sensor; negative control
[3] = target: Recombinant human PD-L1-His tag (ACROBiosystems, #PD1-H5229) (human) (UniProt Q9NZQ7); test: Octet RED96e sensorgram; PD-L1-His loaded at 10 µg/ml on HIS1K sensor; negative control
[4] = target: Recombinant human PD-L1-His tag (ACROBiosystems, #PD1-H5229) (human) (UniProt Q9NZQ7); test: Octet RED96e; PD-L1-His loaded at 10 µg/ml on HIS1K sensor; negative control
[5] = target: Recombinant human PD-L2-His tag (ACROBiosystems, #PD2-H5220) (human) (UniProt Q9BQ51); test: multilayer Octet RED96e, PD-L2-His on His-sensor
[6] = target: Recombinant human PD-L1-His tag (ACROBiosystems, #PD1-H5229) (human) (UniProt Q9NZQ7); test: multilayer Octet RED96e, PD-L1-His on His-sensor

B1: Monoclonal anti-CD28 (9.3) mAb (GeneTex, #GTX14664) (antibody, V domains shown)
VH: EVKLQQSGPGLVTPSQSLSITCTVSGFSLSDYGVHWVRQSPGQGLEWLGVIWAGGGTNYNSALMSRKSISKDNSKSQVFLKMNSLQADDTAVYYCARDKGYSYYYSMDYWGQGTSVTVSS
VL: DIELTQSPASLAVSLGQRATISCRASESVEYYVTSLMQWYQQKPGQPPKLLIFAASNVESGVPARFSGSGSGTNFSLNIHPVDEDDVAMYFCQQSRKVPYTFGGGTKLEIK
- binding [1]: no binding (tested: 66,7 nM)
- binding [2]: no binding (tested: 66,7 nM (concentration from FIG.4b))
- binding [3]: no binding (tested: 66,7 nM (concentration from FIG.3b))
- binding [4]: no binding (tested: 66,7 nM)
- binding [5]: no binding (tested: 10 µg/ml)
- binding [6]: no binding (tested: 10 µg/ml)
